Experimental data from the supplement of paper PMC3334620.
The full ranking holds about 33,000 sequences; the median of “E-score (-0.5 to 0.5)” is about -0.015, and the highest 2% start at about 0.3. The list shows a part of the results.

Each sequence was assayed against T1, Abf1 (UniProt P14164) (assay: PBM E-score (8-mer binding enrichment) (E-score (-0.5 to 0.5)); higher = stronger / more preferred TF binding). Details: protein concentration: 200 nM; construct: GST-full length.
T1 sequence: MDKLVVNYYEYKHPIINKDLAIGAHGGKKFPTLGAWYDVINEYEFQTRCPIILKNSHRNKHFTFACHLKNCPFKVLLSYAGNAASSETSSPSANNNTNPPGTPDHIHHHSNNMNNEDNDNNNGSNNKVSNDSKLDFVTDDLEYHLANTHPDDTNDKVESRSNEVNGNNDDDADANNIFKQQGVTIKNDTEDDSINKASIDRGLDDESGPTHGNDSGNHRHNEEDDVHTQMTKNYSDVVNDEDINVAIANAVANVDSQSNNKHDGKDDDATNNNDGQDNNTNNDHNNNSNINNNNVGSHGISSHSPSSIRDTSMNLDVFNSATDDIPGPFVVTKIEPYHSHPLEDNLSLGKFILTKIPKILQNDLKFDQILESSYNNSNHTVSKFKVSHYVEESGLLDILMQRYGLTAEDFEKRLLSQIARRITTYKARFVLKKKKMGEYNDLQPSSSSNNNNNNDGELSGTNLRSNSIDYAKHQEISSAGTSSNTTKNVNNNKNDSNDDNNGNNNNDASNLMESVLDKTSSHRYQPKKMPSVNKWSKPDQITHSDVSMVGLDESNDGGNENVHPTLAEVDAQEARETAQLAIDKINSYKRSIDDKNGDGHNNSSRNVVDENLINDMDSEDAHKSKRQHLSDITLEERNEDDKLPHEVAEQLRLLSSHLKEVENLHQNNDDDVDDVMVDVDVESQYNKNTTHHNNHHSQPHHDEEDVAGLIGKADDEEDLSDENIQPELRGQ
Summary of the method: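 Using PURExpress in vitro transcription/translation, GST-tagged yeast transcription factors were made in full-length or DNA-binding-domain form. These were applied at about 100-200 nM to double-stranded universal all-10-mer Agilent arrays, and bound protein was detected with fluorescent anti-GST. Scans were normalised with masliner before the Universal PBM Analysis Suite assigned E-scores to ungapped eight-base words pooled with their reverse complements.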
CGTTACAC was tested, and the “PBM E-score” value was 0.298.
In the case of GCGTTTCA, the “PBM E-score” value is reported as -0.0687.
With CCCTTGGA the “PBM E-score” value was 0.0783.
For CCAGCGTA, the “PBM E-score” value was -0.149.
In the case of ACTGAAAG, the “PBM E-score” value is reported as 0.0169.
GGTGTCCA was tested, and the “PBM E-score” value was 0.0417.
In the case of AAGCTGCG, the “PBM E-score” value is reported as -0.177.
With CGGGCATA the “PBM E-score” value was -0.00822.
For CGTTTGGA, the “PBM E-score” value was 0.0402.
For CTTTGGCC, the “PBM E-score” value was -0.0649.
For TAACCGGA, the “PBM E-score” value was -0.167.
For CACTACAC, the “PBM E-score” value was 0.185.
In the case of GTGGTTCA, the “PBM E-score” value is reported as 0.117.
In the case of ACCTTGAT, the “PBM E-score” value is reported as 0.102.
TGATGTAA was tested, and the “PBM E-score” value was 0.145.
AATGAGAC was tested, and the “PBM E-score” value was -0.136.
With TCAACCAA the “PBM E-score” value was -0.0646.
With GTTAGAAC the “PBM E-score” value was 0.186.
AGCTCGGG was tested, and the “PBM E-score” value was 0.00146.
With ATTACGTA the “PBM E-score” value was 0.372.
GAGTAAAC was tested, and the “PBM E-score” value was -0.0509.
AGTACCAG was tested, and the “PBM E-score” value was -0.0715.
With ACCTCTGC the “PBM E-score” value was -0.0641.
In the case of GGACGTGA, the “PBM E-score” value is reported as 0.0158.
For AGTCTGTG, the “PBM E-score” value was -0.122.
AATGCTTC was tested, and the “PBM E-score” value was 0.124.
For GCGATGTA, the “PBM E-score” value was 0.095.
In the case of AATCAGTA, the “PBM E-score” value is reported as 0.0404.
In the case of CTTTTTTA, the “PBM E-score” value is reported as -0.023.
In the case of CAACATAG, the “PBM E-score” value is reported as -0.0991.
In the case of CAAACCTA, the “PBM E-score” value is reported as 0.0828.
In the case of AGCATTCC, the “PBM E-score” value is reported as -0.0268.
In the case of ACTGTGAG, the “PBM E-score” value is reported as -0.163.
GCTTACCA was tested, and the “PBM E-score” value was 0.113.
In the case of CTATCACA, the “PBM E-score” value is reported as 0.199.
For TGATATCA, the “PBM E-score” value was 0.34.
For ATTATGCG, the “PBM E-score” value was 0.303.
For ATAGGATC, the “PBM E-score” value was 0.0238.
In the case of TTACCGAA, the “PBM E-score” value is reported as 0.0303.
With ACCTACTA the “PBM E-score” value was 0.0118.
With ACCGCCCA the “PBM E-score” value was -0.0567.
With AAGAGACA the “PBM E-score” value was 0.0212.
With AACAGGGC the “PBM E-score” value was -0.135.
In the case of GCGTCTCA, the “PBM E-score” value is reported as -0.0766.
For GCGAACAA, the “PBM E-score” value was 0.0737.
In the case of CCGGGGTA, the “PBM E-score” value is reported as -0.201.
For CCAGGGGG, the “PBM E-score” value was -0.287.
For AATGTGGG, the “PBM E-score” value was -0.151.
In the case of ACTGGCCC, the “PBM E-score” value is reported as -0.0406.
With AACCAAAG the “PBM E-score” value was 0.0516.
CCACGGCC was tested, and the “PBM E-score” value was 0.0158.
CTCAAATC was tested, and the “PBM E-score” value was 0.0736.
With ATTCTGGC the “PBM E-score” value was -0.0296.
AAAGAAAC was tested, and the “PBM E-score” value was 0.114.
In the case of GATCCAGC, the “PBM E-score” value is reported as -0.228.
With AAAAATCC the “PBM E-score” value was -0.0226.
CAGCGAGA was tested, and the “PBM E-score” value was -0.194.
CCACGTAC was tested, and the “PBM E-score” value was 0.186.
ATGAGCAC was tested, and the “PBM E-score” value was -0.0749.
ACGTGAAG was tested, and the “PBM E-score” value was 0.0955.
CGGGGAAG was tested, and the “PBM E-score” value was -0.248.
For AGCTATAA, the “PBM E-score” value was 0.0303.
In the case of CTAAAGAC, the “PBM E-score” value is reported as -0.137.
For ATCGTTCA, the “PBM E-score” value was 0.286.
For AGATATAA, the “PBM E-score” value was 0.222.
In the case of CTTTTTCA, the “PBM E-score” value is reported as 0.0411.
In the case of CCAAGACC, the “PBM E-score” value is reported as -0.253.
CCCTAAGA was tested, and the “PBM E-score” value was -0.119.
For ACTGATTG, the “PBM E-score” value was -0.0923.
For AGGGAACG, the “PBM E-score” value was 0.106.
With AACCTATT the “PBM E-score” value was -0.155.
In the case of CCATGATC, the “PBM E-score” value is reported as 0.0339.
ACCTGGCG was tested, and the “PBM E-score” value was -0.112.
For TCAGTGAA, the “PBM E-score” value was -0.0379.
In the case of ATCCACCC, the “PBM E-score” value is reported as 0.00764.
GCTAGGGA was tested, and the “PBM E-score” value was -0.235.
In the case of CAACTGCC, the “PBM E-score” value is reported as 0.00299.
GGCCTAAC was tested, and the “PBM E-score” value was 0.00251.
With AGCCGCCG the “PBM E-score” value was -0.0745.
For AACACCTG, the “PBM E-score” value was -0.0199.
In the case of ATACTGAA, the “PBM E-score” value is reported as 0.106.
For AAGGAACG, the “PBM E-score” value was 0.0004.
For ATCATACG, the “PBM E-score” value was 0.315.
In the case of AGAACATA, the “PBM E-score” value is reported as 0.0935.
In the case of ACTTCAGG, the “PBM E-score” value is reported as -0.0164.
For CATACTGG, the “PBM E-score” value was 0.0239.
